# Measurements: article PMC11570497 (Nature Plants, 2024)
# Some peptides are written in HELM: one residue between dots, names in brackets for other building blocks, links after the first $.
# Experiment: peptide made by a vendor
# Conditions: whole synthesis
substance,measurement,value
PEPTIDE1{[Dabcyl].V.K.W.F.N.N.A.K.[Edans]}$$$$V2.0,purity (crude or final not stated),95.7%
